Data published in publication PMC12482080.
These are yes or no findings as the source states them, for the method shown. In cells and extracts the contact can be indirect. Some binding calls cover weakened binding; strength is not graded here.

The chains behind the UniProt entries cited, without tags or fusion partners.
UniProt P35222: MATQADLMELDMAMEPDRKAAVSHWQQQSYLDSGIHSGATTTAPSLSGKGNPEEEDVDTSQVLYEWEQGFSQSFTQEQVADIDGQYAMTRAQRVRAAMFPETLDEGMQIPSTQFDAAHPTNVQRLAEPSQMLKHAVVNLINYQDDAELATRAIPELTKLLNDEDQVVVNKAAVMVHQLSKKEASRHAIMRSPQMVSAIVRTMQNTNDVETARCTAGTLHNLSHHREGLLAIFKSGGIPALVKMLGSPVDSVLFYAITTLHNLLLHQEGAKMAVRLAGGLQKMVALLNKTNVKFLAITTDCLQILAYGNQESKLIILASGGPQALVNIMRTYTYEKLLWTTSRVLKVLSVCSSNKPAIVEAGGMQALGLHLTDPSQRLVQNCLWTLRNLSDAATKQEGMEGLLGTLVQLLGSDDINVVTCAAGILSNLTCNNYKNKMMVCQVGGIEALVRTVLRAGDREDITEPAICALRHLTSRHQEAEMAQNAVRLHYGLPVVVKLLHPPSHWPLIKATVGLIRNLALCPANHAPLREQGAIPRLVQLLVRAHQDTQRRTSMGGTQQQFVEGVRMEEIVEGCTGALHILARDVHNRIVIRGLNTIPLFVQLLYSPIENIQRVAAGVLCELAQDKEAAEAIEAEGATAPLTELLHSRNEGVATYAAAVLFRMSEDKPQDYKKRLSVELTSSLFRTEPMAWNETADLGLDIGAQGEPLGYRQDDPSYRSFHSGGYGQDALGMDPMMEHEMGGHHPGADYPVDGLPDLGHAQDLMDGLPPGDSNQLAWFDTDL

Target: β-catenin (UniProt P35222)
Test: co-IP; cell lysate in IP lysis buffer (1% NP-40, 50 mM Tris-HCl pH 8.0, 150 mM NaCl, protease and phosphatase inhibitors), overnight at 4 °C; methods describe both HA/Flag beads for transfected proteins and primary antibody with Protein A/G beads for endogenous proteins; which was used for Fig. 5A, the bait and the cells are not told

B1: EMSY (a transcriptional regulator interacting with BRCA2) (protein, UniProt Q7Z589 1-1322)
chain: MPVVWPTLLDLSRDECKRILRKLELEAYAGVISALRAQGDLTKEKKDLLGELSKVLSISTERHRAEVRRAVNDERLTTIAHNMSGPNSSSEWSIEGRRLVPLMPRLVPQTAFTVTANAVANAAIQHNASLPVPAETGSKEVVCYSYTSTTSTPTSTPVPSGSIATVKSPRPASPASNVVVLPSGSTVYVKSVSCSDEDEKPRKRRRTNSSSSSPVVLKEVPKAVVPVSKTITVPVSGSPKMSNIMQSIANSLPPHMSPVKITFTKPSTQTTNTTTQKVIIVTTSPSSTFVPNILSKSHNYAAVTKLVPTSVIASTTQKPPVVITASQSSLVSNSSSGSSSSTPSPIPNTVAVTAVVSSTPSVVMSTVAQGVSTSAIKMASTRLPSPKSLVSAPTQILAQFPKQHQQSPKQQLYQVQQQTQQQVAQPSPVSHQQQPQQSPLPPGIKPTIQIKQESGVKIITQQVQPSKILPKPVTATLPTSSNSPIMVVSSNGAIMTTKLVTTPTGTQATYTRPTVSPSIGRMAATPGAATYVKTTSGSIITVVPKSLATLGGKIISSNIVSGTTTKITTIPMTSKPNVIVVQKTTGKGTTIQGLPGKNVVTTLLNAGGEKTIQTVPTGAKPAILTATRPITKMIVTQPKGIGSTVQPAAKIIPTKIVYGQQGKTQVLIKPKPVTFQATVVSEQTRQLVTETLQQASRVAEAGNSSIQEGKEEPQNYTDSSSSSTESSQSSQDSQPVVHVIASRRQDWSEHEIAMETSPTIIYQDVSSESQSATSTIKALLELQQTTVKEKLESKPRQPTIDLSQMAVPIQMTQEKRHSPESPSIAVVESELVAEYITTERTDEGTEVAFPLLVSHRSQPQQPSQPQRTLLQHVAQSQTATQTSVVVKSIPASSPGAITHIMQQALSSHTAFTKHSEELGTEEGEVEEMDTLDPQTGLFYRSALTQSQSAKQQKLSQPPLEQTQLQVKTLQCFQTKQKQTIHLQADQLQHKLPQMPQLSIRHQKLTPLQQEQAQPKPDVQHTQHPMVAKDRQLPTLMAQPPQTVVQVLAVKTTQQLPKLQQAPNQPKIYVQPQTPQSQMSLPASSEKQTASQVEQPIITQGSSVTKITFEGRQPPTVTKITGGSSVPKLTSPVTSISPIQASEKTAVSDILKMSLMEAQIDTNVEHMIVDPPKKALATSMLTGEAGSLPSTHMVVAGMANSTPQQQKCRESCSSPSTVGSSLTTRKIDPPAVPATGQFMRIQNVGQKKAEESPAEIIIQAIPQYAIPCHSSSNVVVEPSGLLELNNFTSQQLDDEETAMEQDIDSSTEDGTEPSPSQSSAERS
  binding: binds
